Data from PubChem BioAssay AID662 (National Center for Advancing Translational Sciences (NCATS), 2007).
Some of the results follow. These are further read-outs of the screen, such as a control signal, another cell line or another target. No call is given for them. Most of these compounds were active or inconclusive in the main read-out, so they are no random draw. Words in brackets tell the shape of the fitted curve; partial curves, single points and poor fits give uncertain potencies.

Test: Cell signaling CRE-BLA (Fsk stim)
Conditions: CHO CRE-bla reporter (cAMP response element driving beta-lactamase), forskolin EC10, beta-lactamase ratio; measured here: 460 nm blue channel
Procedure, shortened: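 Cells were plated overnight at 37 °C, exposed to compound titrations plus EC10 NKH 477 for 3 h, then given CCF4 dye for 2 h at room temperature. Blue/green (460/530 nm) ratio was converted to %Activity and AC50 values calculated.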

| SMILES | AC50 |
| --- | --- |
| COC(=O)c1ccccc1NC(=O)c1ccccc1SC | 10 µM [rising, partial curve] |
| O=c1cc(C23CC4CC(CC(C4)C2)C3)[nH][nH]1 | 0.501 µM [rising, single point] |
| COc1cc2c(cc1OC)C(c1cc3cc(OC)c(OC)cc3[nH]c1=O)N(C(=O)C1CC1)CC2 (configuration not stated) | 10 µM [rising, partial curve] |
| COc1ccc(OC)c(C2C(C(=O)c3cc4ccccc4o3)=C(O)C(=O)N2c2cc(C)on2)c1 (configuration not stated) | 10 µM [rising, single point] |
| CCCn1c(=NC(=O)c2ccncc2)c(C#N)cc2c(=O)n3cccc(C)c3nc21 | 1 µM [rising, full curve] |
| O=C(CCS(=O)(=O)c1ccc(Br)s1)NCc1cccs1 | 0.398 µM [falling, partial curve] |
| O=P(O)(O)c1ccccc1OCCCCCOc1ccccc1P(=O)(O)O | 0.126 µM [falling, full curve] |
| Cc1csc(NC(=O)CSc2nc3ccccc3c(=O)[nH]2)n1 | 25.1 µM [rising, single point] |
| O=C(Nc1ccc(N2CCCC2)cc1)c1cccc(F)c1 | 0.126 µM [rising, full curve, poor fit] |
| COc1cc2c(cc1OC)C1=C(C#N)CC/C(=N\S(=O)(=O)c3ccccc3)N1CC2 | 0.316 µM [rising, full curve] |
| CC(=O)Nc1ccc(NC(=O)Cn2cc3c(n2)CCCC3)cc1 | 0.0251 µM [falling, full curve] |
| CCN1CCc2c(sc3c2c(NCc2ccco2)nc2nnnn23)C1 | 12.6 µM [rising, single point] |
| CC(C)Oc1ccc(C(=O)Nc2ccc(N(C)C)cc2)cc1 | 0.794 µM [rising, partial curve] |
| CCNc1sc(C(=O)c2cccs2)c(N)c1-c1nc2ccccc2s1 | 0.2 µM [falling, full curve] |
| COc1cc2ccc(=O)oc2c(O)c1O | 12.6 µM [rising, partial curve] |
| O=C1CCCN1CCCNc1ncnc2c1[nH]c1ccc(Cl)cc12 | 1.26 µM [rising, full curve] |
| CCOC(=O)/C=C1\SCC(=O)N1CC(=O)c1ccc[nH]1 | 5.01 µM [falling, single point] |
| COc1cc2c(cc1OC)C(COc1ccc3c(C)cc(=O)oc3c1)N(C(=O)c1ccco1)CC2 (configuration not stated) | 0.794 µM [rising, full curve] |
| O=C(Nc1ccccc1Cl)N1CCN(c2ccccn2)CC1 | 0.00398 µM [falling, full curve] |
| COc1cc(C2C(C(=O)OC(C)C)=C(C)Nc3ncnn32)cc(OC)c1OC (configuration not stated) | 12.6 µM [rising, partial curve] |
| O=C1c2cccc3cccc(c23)N1CN1CCN(c2ccccn2)CC1 | 25.1 µM [rising, single point] |
| CC(C)(O)C#CC#CCN1CCOCC1 | 25.1 µM [falling, single point] |
| Cc1ccccc1-c1nc(N(C)C)c2ccccc2n1 | 5.01 µM [rising, full curve] |

5 records picked at random from those above:

| SMILES | AC50 |
| --- | --- |
| O=P(O)(O)c1ccccc1OCCCCCOc1ccccc1P(=O)(O)O | 0.126 µM [falling, full curve] |
| O=C(Nc1ccc(N2CCCC2)cc1)c1cccc(F)c1 | 0.126 µM [rising, full curve, poor fit] |
| COc1cc2c(cc1OC)C1=C(C#N)CC/C(=N\S(=O)(=O)c3ccccc3)N1CC2 | 0.316 µM [rising, full curve] |
| COc1ccc(OC)c(C2C(C(=O)c3cc4ccccc4o3)=C(O)C(=O)N2c2cc(C)on2)c1 (configuration not stated) | 10 µM [rising, single point] |
| CC(=O)Nc1ccc(NC(=O)Cn2cc3c(n2)CCCC3)cc1 | 0.0251 µM [falling, full curve] |

The results go on.

| SMILES | AC50 |
| --- | --- |
| NC(=O)c1c(NC(=O)CSc2nnc(-c3ccccc3)n2CC2CCCO2)sc2c1CCC2 (configuration not stated) | 5.01 µM [falling, single point] |
| CC1(C)Cc2c(c(-c3ccccc3)[nH]c(=O)c2C#N)CO1 | 15.8 µM [rising, partial curve] |
| Cc1cnc(CNc2ncnc3ccc(-c4ccc(N(C)C)cc4)cc23)cn1 | 6.31 µM [rising, partial curve] |
| CCNc1ncc2nc(-c3ccc(F)cc3)c(=O)n(C)c2n1 | 15.8 µM [rising, partial curve] |
| Cc1ccc(S(=O)(=O)c2nc(S(C)(=O)=O)sc2N(C)C)cc1 | 0.158 µM [rising, full curve, poor fit] |
| CN(C)c1nc2c(c(=O)[nH]c(=O)n2C)n1Cc1ccc(F)cc1 | 10 µM [rising, partial curve] |
| CCOc1ccc2nc(NC(=O)CN3CCC(n4nnc5cc(F)ccc54)CC3)sc2c1 | 25.1 µM [falling, single point] |
| O=S(=O)(Nc1ccc(-c2nc3cccnc3s2)cc1)c1cccs1 | 3.16 µM [rising, partial curve] |
| O=C(O)CCC(=O)NCCn1c(-c2ccccc2)csc1=Nc1ccccc1 | 0.0631 µM [falling, full curve] |
| Cc1ccc2cc(C#N)c(NCCNC(=O)C3CC3)nc2c1C | 5.01 µM [rising, partial curve] |
| O=c1[nH]c(Cc2cccs2)nc2ccccc12 | 0.00316 µM [falling, full curve, poor fit] |
| O=C(CCn1c(=O)[nH]c2ccsc2c1=O)N1CCc2ccccc2C1 | 0.398 µM [falling, full curve] |
| CC1CCN(C(=O)C2CCN(C(=O)c3cc4sccc4n3Cc3ccc(F)cc3)CC2)CC1 | 0.0398 µM [rising, full curve, poor fit] |
| COCCn1c(=O)c(-c2cn(C)c3ccccc23)nc2cnc(Oc3cccc(Cl)c3)nc21 | 3.16 µM [rising, partial curve] |
| CS(=O)(=O)c1ccc(Cl)c(NC(=O)C2CC(=O)N(Cc3ccccc3)C2)c1 (configuration not stated) | 0.631 µM [rising, partial curve, poor fit] |
| CCOC(=O)c1ccc(NC(=O)c2ccc(C)c(S(=O)(=O)N3CCOCC3)c2)cc1 | 0.00316 µM [falling, full curve, poor fit] |
| CC1CC(C)CN(CCCNC(=O)c2ccc3c(c2)NC(=O)C(N2CCCCC2)S3)C1 (configuration not stated) | 0.2 µM [falling, partial curve] |
| O=C(c1cccn2c(=O)c3ccc(Cl)cc3nc12)N1CCN(Cc2ccc3c(c2)OCO3)CC1 | 12.6 µM [rising, partial curve] |
| CC(C)N(Cc1nc(-c2ccccc2)no1)C(=O)c1ccc(Cl)cc1 | 25.1 µM [falling, single point] |
| COc1ccc(S(=O)(=O)N2CCc3ccccc32)cc1C(=O)OCc1nnc(-c2ccccc2)o1 | 0.398 µM [falling, partial curve] |
| CC(C)CCn1c(=S)[nH]c2ncccc2c1=O | 0.00316 µM [rising, full curve, poor fit] |
| CC(=O)C(C)Oc1ccc2c3c(c(=O)oc2c1)CCCC3 (configuration not stated) | 10 µM [rising, partial curve] |
| CCCn1c(-c2ccc(F)cc2)nc2c(NCC3CCCN3CC)nc(C)nc21 (configuration not stated) | 10 µM [rising, partial curve] |

| SMILES | AC50 |
| --- | --- |
| COc1ccccc1CN1CC(C(=O)NCC2CCCO2)CC1=O (configuration not stated) | 5.01 µM [falling, single point] |
| CCOC(=O)c1sc(NC(=O)c2ccc(Cl)s2)cc1C | 10 µM [rising, partial curve] |
| CCCC(=O)Nc1cccn(Cc2ccccc2Br)c1=O | 0.794 µM [falling, partial curve] |
| COCCn1c(=O)c(-c2cn(C)c3ccccc23)nc2cnc(Oc3ccc(OC)cc3)nc21 | 12.6 µM [rising, partial curve] |
| Cn1nc(-c2ccc(Cl)cc2)c2cc(C(=O)N3CCOCC3)sc21 | 5.01 µM [rising, full curve] |
| NC(=O)C1(N2CCCCC2)CCN(C(=O)c2ccccc2)CC1 | 12.6 µM [rising, partial curve] |
| CCNC(=O)C1CC(=O)N(CC)C(=Nc2cc(Cl)c(O)c(Cl)c2)S1 (configuration not stated) | 0.1 µM [falling, single point] |
| COc1cccc(C2/C(=C(/O)c3ccc(F)cc3)C(=O)C(=O)N2CCN(C)C)c1 (configuration not stated) | 0.2 µM [rising, full curve, poor fit] |
| c1ccc(OCc2nn3c(-c4n[nH]c5c4CCC5)nnc3s2)cc1 | 15.8 µM [rising, partial curve] |
| Cc1cc(N(C)Cc2ccccc2)nc(-c2ccccc2)n1 | 5.01 µM [falling, single point] |
| CCn1c(=S)sc2c(=O)n(-c3ccccc3)c(SCC(=O)NCc3ccco3)nc21 | 10 µM [rising, partial curve, poor fit] |
| O=C(c1ccco1)N1CCN(C(=O)c2cc(-c3ccccn3)nc3ccccc23)CC1 | 3.98 µM [falling, single point] |
| CCOC(=O)c1sc(NC(=O)C2CCCO2)c(C(=O)OCC)c1C (configuration not stated) | 3.98 µM [rising, full curve, poor fit] |
| CCn1cc(C(=O)NCc2ccc(C)o2)c2cc(OC)c(OC)cc2c1=O | 1.58 µM [rising, full curve] |
| Cc1ccccc1-c1nccc(-n2ccnc2)n1 | 10 µM [rising, partial curve] |
| CCC(C(=O)O)n1c(C(F)(F)F)nc2ccccc21 (configuration not stated) | 31.6 µM [falling, single point] |
| COCc1[nH]nc2c1C(C1C=CCCC1)C(C#N)=C(N)O2 (configuration not stated) | 0.01 µM [falling, full curve, poor fit] |
| CC(C)Cn1c2nc3ccccc3nc2c2c(=O)n(CCN3CCOCC3)cnc21 | 10 µM [rising, single point] |
| COc1cc2c(cc1OC)-c1cc(NC3CC3)nc(=O)n1CC2 | 10 µM [rising, partial curve] |
| Cc1[nH]nc2c1C(c1cn[nH]c1-c1ccc(F)cc1)C(C#N)=C(N)O2 (configuration not stated) | 1.26 µM [falling, full curve] |
| CN(C)S(=O)(=O)c1ccc(N2CCCC2)c(C(=O)Nc2ccccc2N2CCOCC2)c1 | 25.1 µM [rising, single point] |
